Reference: paper PMC10477102

T1: Fibroblast growth factor 11 (flag-h.FGF11, from pFlag-CMV2-human FGF11) (human) (UniProt Q92914)
T1 sequence: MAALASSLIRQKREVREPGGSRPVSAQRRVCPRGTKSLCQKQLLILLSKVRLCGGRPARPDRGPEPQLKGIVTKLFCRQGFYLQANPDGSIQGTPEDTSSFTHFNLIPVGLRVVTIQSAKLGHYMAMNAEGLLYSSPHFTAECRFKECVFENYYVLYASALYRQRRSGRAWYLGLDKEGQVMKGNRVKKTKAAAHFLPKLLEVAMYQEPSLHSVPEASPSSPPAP

B1: Fibroblast growth factor 11 (flag-h.FGF11, from pFlag-CMV2-human FGF11) (protein, UniProt Q92914 1-225)
chain: T1 sequence

Experiments:
[1] = biological target: T1, Fibroblast growth factor 11 (flag-h.FGF11, from pFlag-CMV2-human FGF11) (human); assay: co-IP; Hep3B cells transfected with FGF11 and/or FXRα1 expression vectors, 24 h; lysed in RIPA buffer; precipitated with anti-FLAG antibody (4 °C, 12 h), protein G-Sepharose; blot with anti-HA
[2] = biological target: HA-tagged full-length farnesoid X receptor alpha 1 (FXRα1); assay: co-IP; Hep3B cells transfected, 24 h; lysed in RIPA buffer; precipitated with anti-HA antibody (4 °C, 12 h), protein G-Sepharose; blot with anti-FLAG

| Molecule | binding [1] | binding [2] |
| --- | --- | --- |
| HA-tagged full-length farnesoid X receptor alpha 1 (FXRα1) | binds | – |
| B1 | – | binds |

Results are given in words; binding and its absence hold for the method and conditions named. In cells and extracts the contact can be indirect. Binding calls can cover weak binding; strength is not graded here. Sequences can lack the tags named with a protein.
